{
  "source": "the supplement of paper PMC12889115",
  "test_system": "Salmonella enterica serovar Typhimurium SL1344",
  "assay": "bacterial growth OD600 after 18 h with compound and polymyxin B; higher = more bacterial growth (less inhibition)",
  "conditions": "50 µM, Mueller-Hinton broth",
  "note": "Some of the results follow. Values are raw readings; no control value is given beside them.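 In the initial screen, polymyxin B was used at a concentration that permeabilizes Salmonella's outer membrane but not its inner membrane. Maximum growth was set by DMSO wells with or without polymyxin B. Since plates varied, data were ranked per plate, and compounds giving the lowest OD600 advanced as hits.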",
  "data": [
    {"smiles": "CC(NC1CCN(c2ccc(NC(=O)Cc3cccc(Cl)c3)cc2)CC1)c1cccs1", "note": "(stereo not drawn)", "values": [
      {"measurement": "bacterial growth OD600", "setting": "polymyxin B 0.75 µg/mL", "value": 0.835}
    ]},
    {"smiles": "C=CCN(C(=O)Cn1nnnc1CN1CCCCCC1)C1CCS(=O)(=O)C1", "note": "(stereo not drawn)", "values": [
      {"measurement": "bacterial growth OD600", "setting": "polymyxin B 0.75 µg/mL", "value": 0.821}
    ]},
    {"smiles": "O=C(c1ccc(OC2CCN(Cc3ccc(Cl)s3)CC2)cc1)N1CCCC1", "values": [
      {"measurement": "bacterial growth OD600", "setting": "polymyxin B 1 µg/mL", "value": 1.05}
    ]},
    {"smiles": "CCC(=O)NC1CC(=O)N(CCc2cccc(Cl)c2)C1", "note": "(stereo not drawn)", "values": [
      {"measurement": "bacterial growth OD600", "setting": "polymyxin B 1 µg/mL", "value": 0.967}
    ]},
    {"smiles": "COc1ccc(N2C(=O)CN(Cc3c[nH]cn3)CC23CCCC3)cc1", "values": [
      {"measurement": "bacterial growth OD600", "setting": "polymyxin B 0.75 µg/mL", "value": 0.79}
    ]},
    {"smiles": "CN1CCC(N(C)C(=O)CCC2CCCN(Cc3ccccc3OC(F)F)C2)CC1", "note": "(stereo not drawn)", "values": [
      {"measurement": "bacterial growth OD600", "setting": "polymyxin B 1 µg/mL", "value": 1.17}
    ]},
    {"smiles": "COc1ccc(CC2CN(C(=O)C3CCC3)CCO2)cc1", "note": "(stereo not drawn)", "values": [
      {"measurement": "bacterial growth OD600", "setting": "polymyxin B 0.75 µg/mL", "value": 1.01}
    ]},
    {"smiles": "CN(Cc1nccs1)C(=O)c1csc2nc(-c3ccc(C(F)(F)F)cc3)cn12", "values": [
      {"measurement": "bacterial growth OD600", "setting": "polymyxin B 1 µg/mL", "value": 0.605}
    ]},
    {"smiles": "COC(=O)c1ccc(C(=O)N(C)CC2CCCN(CCc3ccccc3F)C2)cc1", "note": "(stereo not drawn)", "values": [
      {"measurement": "bacterial growth OD600", "setting": "polymyxin B 1 µg/mL", "value": 1.2}
    ]},
    {"smiles": "O=C1N(Cc2ccc(F)c(F)c2)CCCC1(O)CN[C@H]1CC[C@H](O)CC1", "note": "(stereo partly drawn)", "values": [
      {"measurement": "bacterial growth OD600", "setting": "polymyxin B 1 µg/mL", "value": 0.907}
    ]},
    {"smiles": "Cc1oc(-c2cccc(F)c2F)nc1CN1CCCCC1CO", "note": "(stereo not drawn)", "values": [
      {"measurement": "bacterial growth OD600", "setting": "polymyxin B 1 µg/mL", "value": 0.924}
    ]},
    {"smiles": "c1ccc(Cc2noc(-c3ccc(N4CCCO4)nc3)n2)cc1", "values": [
      {"measurement": "bacterial growth OD600", "setting": "polymyxin B 0.75 µg/mL", "value": 0.122}
    ]},
    {"smiles": "COC(=O)[C@@H](NC1CCN(c2ccc(C(=O)NCCN3CCOCC3)cc2)CC1)c1ccccc1", "values": [
      {"measurement": "bacterial growth OD600", "setting": "polymyxin B 0.75 µg/mL", "value": 0.875}
    ]},
    {"smiles": "O=C(NC1Cc2ccccc2C1)C1CCC(=O)N(CCCc2ccccc2)C1", "note": "(stereo not drawn)", "values": [
      {"measurement": "bacterial growth OD600", "setting": "polymyxin B 1 µg/mL", "value": 0.815}
    ]},
    {"smiles": "COc1ccc(CC2(CCC(=O)N(C)CCc3cnn(C)c3)CCC(=O)N2)c2ccccc12", "note": "(stereo not drawn)", "values": [
      {"measurement": "bacterial growth OD600", "setting": "polymyxin B 0.75 µg/mL", "value": 0.78}
    ]},
    {"smiles": "O=C(NCCc1cccnc1)c1ccc2oc(CCc3ccccc3)nc2c1", "values": [
      {"measurement": "bacterial growth OD600", "setting": "polymyxin B 0.75 µg/mL", "value": 0.607}
    ]},
    {"smiles": "Cc1csc(C(C)N(C)C(=O)CC2(c3cccc(C(F)(F)F)c3)CC(=O)N(C3CC3)C2=O)n1", "note": "(stereo not drawn)", "values": [
      {"measurement": "bacterial growth OD600", "setting": "polymyxin B 0.75 µg/mL", "value": 0.781}
    ]},
    {"smiles": "COc1ccc(-c2ccccc2NC(=O)C2CCCN2CCCC(F)(F)F)cc1", "note": "(stereo not drawn)", "values": [
      {"measurement": "bacterial growth OD600", "setting": "polymyxin B 1 µg/mL", "value": 0}
    ]},
    {"smiles": "OCC1(CCOc2ccccc2)CCCN(Cc2ccoc2)C1", "note": "(stereo not drawn)", "values": [
      {"measurement": "bacterial growth OD600", "setting": "polymyxin B 1 µg/mL", "value": 0.832}
    ]},
    {"smiles": "CN(C(=O)c1cccnc1)C(Cc1ccc(F)cc1F)C1CCN(C(=O)C2(C)CCCCC2)CC1", "note": "(stereo not drawn)", "values": [
      {"measurement": "bacterial growth OD600", "setting": "polymyxin B 0.75 µg/mL", "value": 0.858}
    ]},
    {"smiles": "Cn1ccnc1CNC1CC(=O)N(Cc2cccc3ccccc23)C1", "note": "(stereo not drawn)", "values": [
      {"measurement": "bacterial growth OD600", "setting": "polymyxin B 1 µg/mL", "value": 0.931}
    ]},
    {"smiles": "O=C(CCc1nnc(C2(c3ccc(Cl)cc3)CCC2)o1)NC1CCOCC1", "values": [
      {"measurement": "bacterial growth OD600", "setting": "polymyxin B 0.75 µg/mL", "value": 0.832}
    ]},
    {"smiles": "C/C=C(\\C)CN1CCCC(C(=O)Nc2ccc(-c3cscn3)cc2)C1", "note": "(stereo not drawn)", "values": [
      {"measurement": "bacterial growth OD600", "setting": "polymyxin B 1 µg/mL", "value": 0.964}
    ]},
    {"smiles": "O=C(c1ccsc1)N1CCC2(CCCN(Cc3ccc(F)cc3)C2=O)C1", "note": "(stereo not drawn)", "values": [
      {"measurement": "bacterial growth OD600", "setting": "polymyxin B 1 µg/mL", "value": 0.863}
    ]},
    {"smiles": "Cc1ccccc1Oc1ncccc1CNC(=O)Cc1n[nH]c2ccccc12", "values": [
      {"measurement": "bacterial growth OD600", "setting": "polymyxin B 1 µg/mL", "value": 0.915}
    ]},
    {"smiles": "CSCCCN1CCCCC1C(=O)Nc1ccc(Oc2cccnc2)cc1", "note": "(stereo not drawn)", "values": [
      {"measurement": "bacterial growth OD600", "setting": "polymyxin B 1 µg/mL", "value": 0.953}
    ]},
    {"smiles": "CCN1CCN(C2(C(=O)NCc3cc(F)ccc3C)Cc3ccccc3C2)CC1", "values": [
      {"measurement": "bacterial growth OD600", "setting": "polymyxin B 0.75 µg/mL", "value": 0.666}
    ]},
    {"smiles": "CN(CCc1cnn(C)c1)c1nncc(-c2ccc3ccccc3c2)n1", "values": [
      {"measurement": "bacterial growth OD600", "setting": "polymyxin B 0.75 µg/mL", "value": 0.009}
    ]},
    {"smiles": "O=C(NCCCn1nnc2ccccc21)c1cn(Cc2ccccc2F)nn1", "values": [
      {"measurement": "bacterial growth OD600", "setting": "polymyxin B 1 µg/mL", "value": 0.931}
    ]},
    {"smiles": "CC(C)Nc1ccc(C(=O)N2CCC(CCn3cccn3)CC2)cn1", "values": [
      {"measurement": "bacterial growth OD600", "setting": "polymyxin B 0.75 µg/mL", "value": 0.783}
    ]},
    {"smiles": "CCNC(=O)c1cn(CC(C)C)cc(C(=O)NCc2ccccc2F)c1=O", "values": [
      {"measurement": "bacterial growth OD600", "setting": "polymyxin B 0.75 µg/mL", "value": 0.089}
    ]},
    {"smiles": "COCCN1C(=O)CC(CC(=O)N(C)Cc2ccccc2C(F)(F)F)(c2ccccc2F)C1=O", "note": "(stereo not drawn)", "values": [
      {"measurement": "bacterial growth OD600", "setting": "polymyxin B 0.75 µg/mL", "value": 0.273}
    ]},
    {"smiles": "O=C(NCc1ccsc1)C1CCCN(C2CCN(C(=O)C3CC3)CC2)C1", "note": "(stereo not drawn)", "values": [
      {"measurement": "bacterial growth OD600", "setting": "polymyxin B 0.75 µg/mL", "value": 0.869}
    ]}
  ]
}
